# Test results as given in the supplement of paper PMC8728848.
# The list shows a part of the results.
# B1: BSR4 (Toxoplasma gondii), Q95NL6 (protein)
# chain: MVMMGSMQQRRGGLRSNARQLLAVCMSGVVFFSSGQAVADNLLEGLLHRTLQQQVEVTSRLTVAGSDAKCDFFTPATQDSPPVSGSLTLSKGRMTATFECSATQALSISTIPTNIEQNVCDPKKTTNGTVCQFGANGSAGTEVTLKDLLETDRIVNWKVNEQREESNKSQKWSLELHNEDLPLTDKAFVVGCQATSAARGTESGKTAACKLTVNVEARASSLAENNVVTCAYGKGSNPNPVEVEMSTEKNTLTINCGSDGSLQPTTYAEEYCVADSKDVNRCSTTRFVEIFPKFLKSWWVTETQKRTSATLTIPQTDLPEADQQFLVGCVPKKTAPEDPKKDKESGTETGAPTSCTVLVTVKAASSASHASPTVQILAAASSAAA
# Columns and labels:
# Test in all cases: glycan array binding signal (z-score within array); higher = stronger binding
# Conditions in all cases: glycan notation: IUPAC condensed, linker removed
# [1] = biological target: Fuc(a1-2)[GalNAc(a1-3)]Gal(b1-4)GlcNAc(b1-3)Gal(b1-4)GlcNAc
# Summary of the method: (§1)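 The binding signal is a Z-score computed within each array and averaged over linkers. Arrays of the same protein sequence at different concentrations or buffers were also averaged together. Data originate from 3228 arrays in the Consortium for Functional Glycomics database, kept only where the protein sequence was available.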
# [2] = biological target: Fuc(a1-2)[GalNAc(a1-3)]Gal(b1-4)GlcNAc(b1-3)Gal(b1-4)GlcNAc(b1-3)Gal(b1-4)GlcNAc
# Summary of the method: as §1
# [3] = biological target: Fuc(a1-2)[GalNAc(a1-3)]Gal(b1-4)[Fuc(a1-3)]GlcNAc
# Summary of the method: as §1
# [4] = biological target: Fuc(a1-2)[GalNAc(a1-4)]Gal(b1-4)GlcNAc
# Summary of the method: as §1
# [5] = biological target: Fuc(a1-2)[GalNAc(b1-3)]Gal
# Summary of the method: as §1
# [6] = biological target: Fuc(a1-3)GlcNAc
# Summary of the method: as §1
# [7] = biological target: Fuc(a1-3)[Gal(b1-4)]Glc6S
# Summary of the method: as §1
# [8] = biological target: Fuc(a1-3)[Gal(b1-4)]GlcNAc
# Summary of the method: as §1
# [9] = biological target: Fuc(a1-3)[Gal(b1-4)]GlcNAc(b1-2)Man(a1-3)[Fuc(a1-3)[Gal(b1-4)]GlcNAc(b1-2)Man(a1-6)]Man(b1-4)GlcNAc(b1-4)GlcNAc
# Summary of the method: as §1
# [10] = biological target: Fuc(a1-3)[Gal(b1-4)]GlcNAc(b1-3)Gal(b1-3)[Fuc(a1-4)]GlcNAc
# Summary of the method: as §1
# [11] = biological target: Fuc(a1-3)[Gal(b1-4)]GlcNAc(b1-3)GalNAc
# Summary of the method: as §1
# [12] = biological target: Fuc(a1-3)[Gal(b1-4)]GlcNAc(b1-4)Gal(b1-4)[Fuc(a1-3)]GlcNAc
# Summary of the method: as §1
# [13] = biological target: Fuc(a1-3)[Gal(b1-4)]GlcNAc(b1-4)Gal(b1-4)[Fuc(a1-3)]GlcNAc(b1-4)Gal(b1-4)[Fuc(a1-3)]GlcNAc
# Summary of the method: as §1
# [14] = biological target: Fuc(a1-3)[Gal(b1-4)]GlcNAc(b1-6)[Gal(b1-3)GlcNAc(b1-3)]Gal(b1-4)Glc
# Summary of the method: as §1
# [15] = biological target: Fuc(a1-3)[Gal(b1-4)]GlcNAc6S
# Summary of the method: as §1
# [16] = biological target: Fuc(a1-3)[Gal3S(b1-4)]GlcNAc
# Summary of the method: as §1
# [17] = biological target: Fuc(a1-3)[Gal3S(b1-4)]GlcNAc6S
# Summary of the method: as §1
# [18] = biological target: Fuc(a1-3)[GalNAc(b1-4)]GlcNAc
# Summary of the method: as §1
# [19] = biological target: Fuc(a1-4)GlcNAc
# Summary of the method: as §1
# [20] = biological target: Fuc(b1-3)GlcNAc
# Summary of the method: as §1
# [21] = biological target: Gal(a1-2)Gal
# Summary of the method: as §1
# [22] = biological target: Gal(a1-3)Gal
# Summary of the method: as §1
# [23] = biological target: Gal(a1-3)Gal(b1-3)GlcNAc
# Summary of the method: as §1
# [24] = biological target: Gal(a1-3)Gal(b1-3)GlcNAc(b1-2)Man(a1-3)[Gal(a1-3)Gal(b1-3)GlcNAc(b1-2)Man(a1-6)]Man(b1-4)GlcNAc(b1-4)GlcNAc
# Summary of the method: as §1
# [25] = biological target: Gal(a1-3)Gal(b1-3)[Fuc(a1-4)]GlcNAc(b1-2)Man(a1-3)[Gal(a1-3)Gal(b1-3)[Fuc(a1-4)]GlcNAc(b1-2)Man(a1-6)]Man(b1-4)GlcNAc(b1-4)GlcNAc
# Summary of the method: as §1
# [26] = biological target: Gal(a1-3)Gal(b1-4)Glc
# Summary of the method: as §1
# [27] = biological target: Gal(a1-3)Gal(b1-4)GlcNAc
# Summary of the method: as §1
# [28] = biological target: Gal(a1-3)Gal(b1-4)GlcNAc(b1-3)GalNAc
# Summary of the method: as §1
# [29] = biological target: Gal(a1-3)Gal(b1-4)[Fuc(a1-3)]GlcNAc
# Summary of the method: as §1
# [30] = biological target: Gal(a1-3)Gal(b1-4)[Fuc(a1-3)]GlcNAc(b1-2)Man(a1-3)[Gal(a1-3)Gal(b1-4)[Fuc(a1-3)]GlcNAc(b1-2)Man(a1-6)]Man(b1-4)GlcNAc(b1-4)GlcNAc
# Summary of the method: as §1
# [31] = biological target: Gal(a1-3)GalNAc
# Summary of the method: as §1
# [32] = biological target: Gal(a1-3)[Gal(a1-4)]Gal(b1-4)GlcNAc
# Summary of the method: as §1
# [33] = biological target: Gal(a1-4)Gal(b1-3)GlcNAc(b1-2)Man(a1-3)[Gal(a1-4)Gal(b1-3)GlcNAc(b1-2)Man(a1-6)]Man(b1-4)GlcNAc(b1-4)GlcNAc
# Summary of the method: as §1
# [34] = biological target: Gal(a1-4)Gal(b1-4)Glc
# Summary of the method: as §1
# [35] = biological target: Gal(a1-4)Gal(b1-4)GlcNAc
# Summary of the method: as §1
# [36] = biological target: Gal(a1-4)Gal(b1-4)GlcNAc(b1-2)Man(a1-3)[Gal(a1-4)Gal(b1-4)GlcNAc(b1-2)Man(a1-6)]Man(b1-4)GlcNAc(b1-4)GlcNAc
# Summary of the method: as §1
# [37] = biological target: Gal(a1-4)Gal(b1-4)GlcNAc(b1-3)Gal(b1-4)Glc
# Summary of the method: as §1
# [38] = biological target: Gal(a1-4)GlcNAc
# Summary of the method: as §1
# [39] = biological target: Gal(a1-6)Glc
# Summary of the method: as §1
# [40] = biological target: Gal(b1-2)Gal
# Summary of the method: as §1
# [41] = biological target: Gal(b1-3)Gal
# Summary of the method: as §1
# [42] = biological target: Gal(b1-3)Gal(b1-4)GlcNAc
# Summary of the method: as §1
# [43] = biological target: Gal(b1-3)Gal(b1-4)GlcNAc(b1-2)Man(a1-3)[Gal(b1-3)Gal(b1-4)GlcNAc(b1-2)Man(a1-6)]Man(b1-4)GlcNAc(b1-4)GlcNAc
# Summary of the method: as §1
# [44] = biological target: Gal(b1-3)GalNAc
# Summary of the method: as §1
# [45] = biological target: Gal(b1-3)GalNAc(a1-3)[Fuc(a1-2)]Gal(b1-4)Glc
# Summary of the method: as §1
binder,measurement,setting,value
B1,glycan array binding signal (z-score),[1],0.25
same,glycan array binding signal (z-score),[2],0.347
same,glycan array binding signal (z-score),[3],0.816
same,glycan array binding signal (z-score),[4],-0.251
same,glycan array binding signal (z-score),[5],0.271
same,glycan array binding signal (z-score),[6],-1.05
same,glycan array binding signal (z-score),[7],0.507
same,glycan array binding signal (z-score),[8],0.23
same,glycan array binding signal (z-score),[9],-0.078
same,glycan array binding signal (z-score),[10],-0.355
same,glycan array binding signal (z-score),[11],0.599
same,glycan array binding signal (z-score),[12],1.44
same,glycan array binding signal (z-score),[13],0.049
same,glycan array binding signal (z-score),[14],0.068
same,glycan array binding signal (z-score),[15],0.805
same,glycan array binding signal (z-score),[16],0.276
same,glycan array binding signal (z-score),[17],0.574
same,glycan array binding signal (z-score),[18],0.065
same,glycan array binding signal (z-score),[19],0.324
same,glycan array binding signal (z-score),[20],-0.078
same,glycan array binding signal (z-score),[21],0.204
same,glycan array binding signal (z-score),[22],-0.103
same,glycan array binding signal (z-score),[23],-1.03
same,glycan array binding signal (z-score),[24],1.28
same,glycan array binding signal (z-score),[25],0.647
same,glycan array binding signal (z-score),[26],-0.417
same,glycan array binding signal (z-score),[27],-0.719
same,glycan array binding signal (z-score),[28],-0.442
same,glycan array binding signal (z-score),[29],0.809
same,glycan array binding signal (z-score),[30],0.512
same,glycan array binding signal (z-score),[31],0.217
same,glycan array binding signal (z-score),[32],-0.812
same,glycan array binding signal (z-score),[33],-0.234
same,glycan array binding signal (z-score),[34],-0.57
same,glycan array binding signal (z-score),[35],-0.356
same,glycan array binding signal (z-score),[36],0.496
same,glycan array binding signal (z-score),[37],-0.086
same,glycan array binding signal (z-score),[38],-0.167
same,glycan array binding signal (z-score),[39],0.267
same,glycan array binding signal (z-score),[40],-0.504
same,glycan array binding signal (z-score),[41],0.383
same,glycan array binding signal (z-score),[42],0.289
same,glycan array binding signal (z-score),[43],-0.339
same,glycan array binding signal (z-score),[44],-0.226
same,glycan array binding signal (z-score),[45],-0.221

# Fetched one by one from the entries so far:
binder,measurement,setting,value
B1,glycan array binding signal (z-score),[8],0.23
same,glycan array binding signal (z-score),[41],0.383
same,glycan array binding signal (z-score),[13],0.049
